PMC3459922
These are yes or no findings as the source states them, for the method shown. Binding seen in cells or lysates may run through a third protein. For some assays here: A result given as binding can be weak or reduced; the word gives no strength. For some assays here: Sequences can lack the tags named with a protein.

T1: Myc-Fbw8 (UniProt Q8N3Y1)
T1 sequence: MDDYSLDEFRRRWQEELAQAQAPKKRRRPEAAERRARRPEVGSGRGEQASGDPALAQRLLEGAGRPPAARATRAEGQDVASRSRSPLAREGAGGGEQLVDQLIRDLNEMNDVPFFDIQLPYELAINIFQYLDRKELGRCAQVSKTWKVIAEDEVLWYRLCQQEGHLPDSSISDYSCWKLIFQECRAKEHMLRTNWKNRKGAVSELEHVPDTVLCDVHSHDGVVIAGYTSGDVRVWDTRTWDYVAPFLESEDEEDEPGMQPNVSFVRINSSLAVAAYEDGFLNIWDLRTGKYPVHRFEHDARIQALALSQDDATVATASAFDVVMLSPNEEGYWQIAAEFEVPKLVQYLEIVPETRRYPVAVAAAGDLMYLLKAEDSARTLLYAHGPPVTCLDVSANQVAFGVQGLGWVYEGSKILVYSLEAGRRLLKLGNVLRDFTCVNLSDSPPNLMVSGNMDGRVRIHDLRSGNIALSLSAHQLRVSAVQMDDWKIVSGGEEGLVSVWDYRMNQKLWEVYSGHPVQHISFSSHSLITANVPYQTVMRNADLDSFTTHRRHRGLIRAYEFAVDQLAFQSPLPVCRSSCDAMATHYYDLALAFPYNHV


Experiments:
Myc-Fbw8 = molecular target: T1, Myc-Fbw8; experiment: co-IP; HeLa cells transfected with HA-CUL7, Flag-TBC1D3 and Myc-Fbw8; lysates (200 µg) immunoprecipitated with anti-TBC1D3 (2C7) or anti-Myc antibodies; immunoblot
[1] = molecular target: TBC1D3 purified from a baculoviral expression system (human); experiment: pull-down; TBC1D3 adsorbed through a polyclonal anti-TBC1D3 antibody on protein A beads; 35S-methionine-labelled in vitro translated proteins incubated under native conditions; SDS-PAGE and autoradiography; only the target purified

binding (Myc-Fbw8) | binding [1] | Molecule
binds |  | Flag-TBC1D3 (human)
 | no binding | full length SARA (Smad Anchor for Receptor Activation), in vitro translated (protein, UniProt O95405 1-1425, 35S-methionine label) MENYFQAEAYNLDKVLDEFEQNEDETVSSTLLDTKWNKILDPPSHRLSFNPTLASVNESAVSNESQPQLKVFSLAHSAPLTTEEEDHCANGQDCNLNPEIATMWIDENAVAEDQLIKRNYSWDDQCSAVEVGEKKCGNLACLPDEKNVLVVAVMHNCDKRTLQNDLQDCNNYNSQSLMDAFSCSLDNENRQTDQFSFSINESTEKDMNSEKQMDPLNRPKTEGRSVNHLCPTSSDSLASVCSPSQLKDDGSIGRDPSMSAITSLTVDSVISSQGTDGCPAVKKQENYIPDEDLTGKISSPRTDLGSPNSFSHMSEGILMKKEPAEESTTEESLRSGLPLLLKPDMPNGSGRNNDCERCSDCLVPNEVRADENEGYEHEETLGTTEFLNMTEHFSESQDMTNWKLTKLNEMNDSQVNEEKEKFLQISQPEDTNGDSGGQCVGLADAGLDLKGTCISESEECDFSTVIDTPAANYLSNGCDSYGMQDPGVSFVPKTLPSKEDSVTEEKEIEESKSECYSNIYEQRGNEATEGSGLLLNSTGDLMKKNYLHNFCSQVPSVLGQSSPKVVASLPSISVPFGGARPKQPSNLKLQIPKPLSDHLQNDFPANSGNNTKNKNDILGKAKLGENSATNVCSPSLGNISNVDTNGEHLESYEAEISTRPCLALAPDSPDNDLRAGQFGISARKPFTTLGEVAPVWVPDSQAPNCMKCEARFTFTKRRHHCRACGKVFCASCCSLKCKLLYMDRKEARVCVICHSVLMNAQAWENMMSASSQSPNPNNPAEYCSTIPPLQQAQASGALSSPPPTVMVPVGVLKHPGAEVAQPREQRRVWFADGILPNGEVADAAKLTMNGTSSAGTLAVSHDPVKPVTTSPLPAETDICLFSGSITQVGSPVGSAMNLIPEDGLPPILISTGVKGDYAVEEKPSQISVMQQLEDGGPDPLVFVLNANLLSMVKIVNYVNRKCWCFTTKGMHAVGQSEIVILLQCLPDEKCLPKDIFNHFVQLYRDALAGNVVSNLGHSFFSQSFLGSKEHGGFLYVTSTYQSLQDLVLPTPPYLFGILIQKWETPWAKVFPIRLMLRLGAEYRLYPCPLFSVRFRKPLFGETGHTIMNLLADFRNYQYTLPVVQGLVVDMEVRKTSIKIPSNRYNEMMKAMNKSNEHVLAGGACFNEKADSHLVCVQNDDGNYQTQAISIHNQPRKVTGASFFVFSGALKSSSGYLAKSSIVEDGVMVQITAENMDSLRQALREMKDFTITCGKADAEEPQEHIHIQWVDDDKNVSKGVVSPIDGKSMETITNVKIFHGSEYKANGKVIRWTEVFFLENDDQHNCLSDPADHSRLTEHVAKAFCLALCPHLKLLKEDGMTKLGLRVTLDSDQVGYQAGSNGQPLPSQYMNDLDSALVPVIHGGACQLSEGPVVMELIFYILENIV
